This note sets out measurements from PubChem BioAssay AID2685 (National Center for Advancing Translational Sciences (NCATS), 2010).

The other results are listed elsewhere or left out. Further columns of the screen follow, without active or inactive calls. Most of these compounds were active or inconclusive in the main read-out, so they are no random draw. Words in brackets tell the shape of the fitted curve; partial curves, single points and poor fits give uncertain potencies.

A short description of this test: qHTS Assay for Lipid Storage Modulators in Drosophila S3 Cells.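 For cell number change: cells counted by Cell Tracker Red CMTPX staining in the red channel.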 As to conditions: BODIPY lipid droplet fluorescence, 18-24 h; for cell number change: measured here: cell count max response, cells fed with added oleic acid. In outline: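 Drosophila S3 cells got compounds at several concentrations plus oleic acid (400 uM solution). Laser-scanning cytometry with 488 nm excitation read lipid droplets at 500-530 nm and cells at 575-640 nm. Percent activity was relative to 20 uM Triacsin C.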
On the technique in general: In qHTS, concentration-response curves come from the screen itself.

[1] abbreviates: measured here: lipid fluorescence (Fed channel) AC50, cells fed with added oleic acid.
The mark [2] stands for this setting: measured here: cell number channel AC50, cells fed with added oleic acid.

What is called AC50 is the concentration giving half of the maximal activity seen. A low value points to greater potency. On to `COc1ccc(CN2CCSCC2)cc1C`, for which, under setting [1], the AC50 is 20.6 µM [falling, partial curve].
On to `C(=N\Nc1nc(Nc2ccccc2)nc(Nc2ccccc2)n1)/c1cccnc1`, for which the cell number change was -4.67%. Moreover, the concentration at half-maximal activity (AC50) under setting [2] is 1.46 µM [rising, partial curve, poor fit]. Also, the half-maximal activity concentration (AC50) under setting [1] was 0.731 µM [rising, full curve].
Regarding `COC(=O)Sc1nc(N2CCOCC2)c2c(c1C#N)CC(C)(C)OC2`, the cell number change is 1.54%. For the same compound, the AC50 under setting [1] was 14.6 µM [rising, partial curve, poor fit].
As to `CCCCOc1ccc(C(=O)Nc2ccc(OCC(=O)N3CCOCC3)cc2)cc1`, the cell number change is -3.47%. Under setting [1], the AC50 was 6.51 µM [rising, single point].
In the case of `Cc1ccc(/C=N/Nc2nc(N3CCOCC3)nc(N3CCOCC3)n2)o1`, the cell number change came out at 6.61%. The AC50 under setting [1] is 6.51 µM [falling, single point].
With `Cc1ccc(S(=O)(=O)N(c2cccc(C(F)(F)F)c2)C2C=CS(=O)(=O)C2)cc1` (stereo not drawn), the cell number change is -41.5%. The AC50 under setting [2] was 0.411 µM [falling, full curve, poor fit]. Besides, the AC50 under setting [1] is 0.326 µM [falling, full curve, poor fit].
As for `Cc1cc(C)cc(N2C(=O)CC(Sc3nnnn3-c3ccccc3)C2=O)c1` (stereo not drawn), the cell number change is -87.1%. Under setting [2], the AC50 is 29.1 µM [falling, single point]. Besides, the AC50 under setting [1] was 29.1 µM [falling, single point].
As for `C=CCN=C1SCC(=O)N1S(=O)(=O)c1ccccc1`, the cell number change stood at 30.5%. In addition, under setting [2], the AC50 is 11.6 µM [rising, single point]. Also, under setting [1], the concentration at half-maximal activity (AC50) is 18.4 µM [rising, single point].
As for `CCOc1ccc(N2C(=O)CC(N3CCN(C(=O)CN4CCCC4)CC3)C2=O)cc1` (stereo not drawn), the cell number change stood at 0.14%.
For `O=C(O)CCC(=O)N1N=C(c2c(-c3ccccc3)c3cc(Cl)ccc3[nH]c2=O)CC1c1cccs1` (stereo not drawn), the cell number change was -13.6%. The AC50 under setting [1] was 6.51 µM [rising, partial curve, poor fit].
On to `CCc1ccc(C(C(=O)NCc2ccc(OC)cc2)N(CCOC)C(=O)Cc2cccs2)cc1` (stereo not drawn), for which the cell number change turned out to be 14.5%. Under setting [1], the AC50 was 0.411 µM [rising, full curve, poor fit].
Turning to `Cc1cccc(C)c1NC(=O)CN(C)C(=O)COc1cccc2c1OC(C)(C)C2`, the cell number change is 34.5%. The half-maximal activity concentration (AC50) under setting [2] was 5.17 µM [rising, full curve, poor fit].
Consider `CCOc1ccc(NC(=O)CSc2nccn(-c3ccc4c(c3)OCCO4)c2=O)cc1`, for which the cell number change is 50%. For the same compound, the half-maximal activity concentration (AC50) under setting [2] was 25.9 µM [rising, single point].
Take `CCc1c(C)nc(SCC(=O)N2CCc3ccccc32)[nH]c1=O`: the cell number change was -7.21%. Under setting [1], the AC50 was 29.1 µM [falling, single point].
Turning to `S=C1SCN(CCN2CCOCC2)CN1Cc1ccccc1`, the cell number change was -6.56%. Also, under setting [1], the AC50 is 20.6 µM [falling, partial curve].
As to `O=C(CC(c1ccccc1)c1ccccc1)NCC1CCCO1` (stereo not drawn), the cell number change was -18.4%.
For `Cc1ccc(NC(=O)c2cccc(OCc3c(C)noc3C)c2)cc1S(=O)(=O)Nc1ccccc1Cl`, the cell number change was -3.83%. The half-maximal activity concentration (AC50) under setting [1] was 29.1 µM [rising, single point].
For the compound `S=C(NCc1ccncc1)Nc1cccc(Cl)c1`, the cell number change was 13.1%. Besides, the AC50 under setting [1] is 29.1 µM [rising, single point].
For `C=C(C)CSc1nnc2n(N)c(=O)c3ccccc3n12`, the cell number change was 78.9%. In addition, the AC50 under setting [2] was 7.31 µM [rising, partial curve]. In addition, the concentration at half-maximal activity (AC50) under setting [1] was 11.6 µM [rising, partial curve].
Take `CC1(C)CC(=O)C2=C(C1)N(Cc1ccco1)C(=O)C2(NC(=O)C1CCCCC1)C(F)(F)F` (stereo not drawn): the concentration at half-maximal activity (AC50) under setting [1] was 0.58 µM [rising, full curve].
Consider `O=C(CN1CCCCC1)Nc1cccc(Oc2ccccc2)c1`, for which the cell number change is -96.2%. In addition, under setting [2], the AC50 is 14.6 µM [falling, partial curve]. Moreover, the AC50 under setting [1] was 29.1 µM [falling, partial curve].
In the case of `COc1cc(/C=C/C(=O)O)cc(S(=O)(=O)Nc2ccc3nc(SC)sc3c2)c1OC`, the cell number change is -27.9%. Also, under setting [2], the AC50 is 3.26 µM [falling, full curve, poor fit].
`Cc1nc(SCc2nnc(-c3ccc(Cl)cc3)o2)c2c3c(sc2n1)CCC3`: the cell number change was determined as 2.61%. Further, the AC50 under setting [1] was 0.116 µM [rising, full curve, poor fit].
As for `CCN=C(Nc1cccc(F)c1)SC1CC(=O)N(c2ccc(OC)cc2)C1=O` (stereo not drawn), the cell number change was -4.02%. Moreover, under setting [1], the AC50 is 0.0326 µM [falling, full curve, poor fit].
On to `COc1cc(NC(=O)CN2CCN(c3ccccc3)CC2)c(C)cc1[N+](=O)[O-]`, for which the cell number change is -36.3%. Further, the AC50 under setting [2] is 13 µM [falling, partial curve]. The half-maximal activity concentration (AC50) under setting [1] was 7.31 µM [falling, single point].
Turning to `CC1CCCCN1CCNC(=O)c1cnn2ccccc12` (stereo not drawn), the cell number change is -75.7%. Moreover, under setting [2], the AC50 is 16.4 µM [falling, single point].
On to `Cc1ccc(C2=[N+]([O-])C3(CCCCC/C3=N\NC(N)=S)N(O)C2(C)C)o1` (stereo not drawn), for which the cell number change was found to be 3.62%. Besides, under setting [1], the AC50 is 1.64 µM [falling, partial curve].
Consider `CC(C)CCn1nc(C(=O)Nc2nc3c(s2)CCCC3)c2ccccc2c1=O`, for which the AC50 was 1.84 µM [rising, partial curve] under setting [2] and 13 µM [rising, partial curve] under setting [1].
As for `O=C(Oc1ccc(N(C(=O)c2ccncc2)S(=O)(=O)c2cccs2)cc1)c1ccncc1`, the cell number change was -24.2%. The AC50 under setting [1] is 18.4 µM [falling, single point].
Take `CCc1ccc(OC)c(S(=O)(=O)NCc2cccs2)c1`: the cell number change is -8.16%. Further, under setting [1], the AC50 is 10.3 µM [rising, partial curve].
As to `O=[N+]([O-])c1cccc(/C=C/c2nc(C=Nc3ccccc3)c(O)o2)c1`, under setting [1], the AC50 is 6.51 µM [rising, partial curve].
`C[C@H](NC(=O)OC(C)(C)C)c1nnc(SCC(=O)Nc2ccc(Br)cc2)o1`: the cell number change stood at 0.257%. The AC50 under setting [1] was 3.66 µM [rising, single point].
For the compound `Cc1ccc(N(CC(=O)Nc2cccc(N(C)S(C)(=O)=O)c2)S(C)(=O)=O)cc1`, the cell number change worked out at 44%. The AC50 under setting [2] is 1.84 µM [rising, partial curve, poor fit].
In the case of `CC(C)(C)c1ccc(Cn2nnc3c(=O)[nH]c(C4CCCN(C(=O)c5ccco5)C4)nc32)cc1` (stereo not drawn), the cell number change was -15.8%. Further, the AC50 under setting [1] is 0.112 µM [rising, full curve, poor fit].
For `O=C(NCc1ccco1)/C(=C\c1cccnc1)NC(=O)c1ccccc1F`, the cell number change is -28.4%. In addition, the AC50 under setting [1] is 23.1 µM [falling, partial curve].
Take `O=C(COc1ncnc2cc([N+](=O)[O-])ccc12)NC1CCCCC1`: the cell number change is 20.6%. In addition, the AC50 under setting [2] was 0.164 µM [falling, full curve].
For the compound `CCn1c(=O)n(CC)c2cc(N3CCCC3)c(NC(=O)c3c(F)cccc3F)cc21`, the cell number change came out at 5.73%.
Turning to `Cc1ccc(S(=O)(=O)N2CCC(=O)N(C(COCc3ccc(C(F)(F)F)cc3)C(C)C)CC2)cc1` (stereo not drawn), the cell number change was determined as 30.5%. In addition, the half-maximal activity concentration (AC50) under setting [2] is 20.6 µM [rising, single point].
For the compound `C=CCc1c(C)nc(C)nc1N/N=C/c1ccc([N+](=O)[O-])cc1`, the concentration at half-maximal activity (AC50) under setting [1] is 0.58 µM [rising, single point].
In the case of `O=S(=O)(Nc1cc(S(=O)(=O)N2CCOCC2)ccc1N1CCCC1)c1cccs1`, the cell number change turned out to be 52.1%. Moreover, the half-maximal activity concentration (AC50) under setting [1] is 3.26 µM [rising, partial curve, poor fit].
Consider `Cc1ccc(C)c(Cn2c(=O)n(CCCC(=O)NCc3ccco3)c(=O)c3sccc32)c1`, for which the half-maximal activity concentration (AC50) runs as follows: under setting [2], 1.84 µM [rising, partial curve]; under setting [1], 1.84 µM [rising, partial curve].
As to `Nc1nc(Nc2cccc(Cl)c2)nc(NCCO)c1[N+](=O)[O-]`, the cell number change was found to be 26.4%. Besides, the AC50 under setting [1] is 25.9 µM [rising, single point].
Take `COc1ccc(N(CC(=O)N2CCCC(C)C2)S(=O)(=O)c2c(C)nn(C)c2C)cc1` (stereo not drawn): the cell number change amounted to 14.5%. For the same compound, the AC50 under setting [2] is 0.13 µM [rising, full curve, poor fit].
Consider `COc1ccc(C2=NN(C(=O)CSc3nnc(-c4ccccc4F)o3)C(c3ccco3)C2)cc1` (stereo not drawn), for which the cell number change came to 7.4%. Further, the AC50 under setting [1] was 3.26 µM [rising, partial curve].
As for `O=C(NC1CC(=O)c2sccc21)c1ccc(Cl)cc1Cl` (stereo not drawn), the cell number change was -2.15%. The AC50 under setting [2] is 0.092 µM [falling, full curve, poor fit].
Consider `CC1CN(c2ncnc3c2c(-c2ccccc2)cn3-c2ccc(F)cc2)CC(C)O1` (stereo not drawn), for which the cell number change is 4.08%. The concentration at half-maximal activity (AC50) under setting [2] was 3.66 µM [rising, partial curve, poor fit].
`O=C(CSc1n[nH]c(-c2ccccc2)n1)c1ccc(O)c(O)c1`: the cell number change was -9.12%. In addition, under setting [2], the AC50 is 0.00517 µM [falling, full curve, poor fit]. Further, the AC50 under setting [1] is 0.13 µM [falling, full curve].
As to `O=C(c1ccc2c(c1)OCCO2)C1CCN(S(=O)(=O)c2ccc(F)cc2)CC1`, the cell number change was 2.16%. Moreover, the AC50 under setting [1] was 20.6 µM [falling, partial curve].
For `c1ccc(-c2cc(-c3nc(-c4cccnc4)no3)c3ccccc3n2)cc1`, the cell number change worked out at 16.6%. The AC50 under setting [1] is 0.13 µM [rising, full curve].
For the compound `O=c1cccc2n1Cc1cc3ccccc3nc1-2`, the cell number change was 23.2%. Further, under setting [1], the AC50 is 29.1 µM [rising, single point].
As to `COc1cccc(CN2CCN(CCCc3ccccc3)C(CCO)C2)c1O` (stereo not drawn), the cell number change is 10.1%.
Turning to `O=C(Nc1nccs1)c1ccc(COc2ccccc2Br)o1`, the AC50 under setting [2] is 5.8 µM [rising, single point].
On to `Cc1cc(N2CCOCC2)nc(-c2ccc(Br)cc2)n1`, for which the cell number change was -7.65%. Further, the AC50 under setting [1] is 1.3 µM [rising, full curve].
Regarding `CN(C)c1nc(Nn2cnnc2)nc(N(C)C)n1`, the cell number change turned out to be 29.9%. Under setting [2], the AC50 is 2.31 µM [rising, full curve, poor fit].
As for `O=C(Nc1ccncc1)Nc1ccc(Cl)cc1Cl`, the cell number change is -20.8%. Also, under setting [1], the half-maximal activity concentration (AC50) is 29.1 µM [rising, single point].
Take `CN(C)CCCn1c2c(c(SCC(=O)Nc3ccc4c(c3)OCCO4)nc1=O)CCC2`: the cell number change is 18.9%.
As for `COc1ccc(Nc2nc(C)cc(=O)[nH]2)c(OC)c1`, the cell number change stood at 77.3%. Also, under setting [2], the concentration at half-maximal activity (AC50) is 16.4 µM [rising, partial curve]. Also, the concentration at half-maximal activity (AC50) under setting [1] was 1.46 µM [rising, full curve, poor fit].
